The other results are listed elsewhere or left out.
Tests used:
Test in all cases: log2 fold change, soluble protein after heating vs DMSO (PISA); higher = thermal stabilisation; K562 cells, 10 uM, 30 min; active = over 0.2 and 3.5 SD of the protein, either way, in both replicates (recomputed)
[1] = compound: NC(=O)Nc1cc(-c2cccc(F)c2)sc1C(=O)N[C@H]1CCCNC1
How it was run: (§1)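 K562 cells at 2×10^6 cells/mL were exposed to 10 μM compound for 30 min, then aliquots were heated for 3 min across 48°C-58°C, pooled, and extracted in PBS containing 0.5% NP-40 at 4°C. The supernatant after 21,000xg for 90 min was taken as soluble protein and measured by TMTpro 16plex LC-MS/MS with channel sums equalised. Thermal stability is reported relative to control samples, with values from duplicates. Fold changes are given on a log2 scale.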

Sequences of proteins named here, by UniProt entry; tags and fusion partners are left off. A change or cut given only in a name is not applied to a line headed by its entry.
UniProt Q96S16: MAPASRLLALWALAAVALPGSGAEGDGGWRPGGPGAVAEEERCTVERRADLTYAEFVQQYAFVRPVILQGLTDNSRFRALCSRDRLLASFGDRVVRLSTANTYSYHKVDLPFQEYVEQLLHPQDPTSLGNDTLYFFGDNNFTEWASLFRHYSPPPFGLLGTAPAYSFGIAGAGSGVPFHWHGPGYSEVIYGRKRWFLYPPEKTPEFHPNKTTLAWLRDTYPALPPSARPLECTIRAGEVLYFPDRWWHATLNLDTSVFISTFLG
UniProt O76095: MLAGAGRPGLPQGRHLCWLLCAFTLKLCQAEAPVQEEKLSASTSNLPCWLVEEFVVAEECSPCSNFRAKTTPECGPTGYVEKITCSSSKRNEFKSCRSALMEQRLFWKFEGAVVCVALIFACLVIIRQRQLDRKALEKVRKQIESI
UniProt Q15811: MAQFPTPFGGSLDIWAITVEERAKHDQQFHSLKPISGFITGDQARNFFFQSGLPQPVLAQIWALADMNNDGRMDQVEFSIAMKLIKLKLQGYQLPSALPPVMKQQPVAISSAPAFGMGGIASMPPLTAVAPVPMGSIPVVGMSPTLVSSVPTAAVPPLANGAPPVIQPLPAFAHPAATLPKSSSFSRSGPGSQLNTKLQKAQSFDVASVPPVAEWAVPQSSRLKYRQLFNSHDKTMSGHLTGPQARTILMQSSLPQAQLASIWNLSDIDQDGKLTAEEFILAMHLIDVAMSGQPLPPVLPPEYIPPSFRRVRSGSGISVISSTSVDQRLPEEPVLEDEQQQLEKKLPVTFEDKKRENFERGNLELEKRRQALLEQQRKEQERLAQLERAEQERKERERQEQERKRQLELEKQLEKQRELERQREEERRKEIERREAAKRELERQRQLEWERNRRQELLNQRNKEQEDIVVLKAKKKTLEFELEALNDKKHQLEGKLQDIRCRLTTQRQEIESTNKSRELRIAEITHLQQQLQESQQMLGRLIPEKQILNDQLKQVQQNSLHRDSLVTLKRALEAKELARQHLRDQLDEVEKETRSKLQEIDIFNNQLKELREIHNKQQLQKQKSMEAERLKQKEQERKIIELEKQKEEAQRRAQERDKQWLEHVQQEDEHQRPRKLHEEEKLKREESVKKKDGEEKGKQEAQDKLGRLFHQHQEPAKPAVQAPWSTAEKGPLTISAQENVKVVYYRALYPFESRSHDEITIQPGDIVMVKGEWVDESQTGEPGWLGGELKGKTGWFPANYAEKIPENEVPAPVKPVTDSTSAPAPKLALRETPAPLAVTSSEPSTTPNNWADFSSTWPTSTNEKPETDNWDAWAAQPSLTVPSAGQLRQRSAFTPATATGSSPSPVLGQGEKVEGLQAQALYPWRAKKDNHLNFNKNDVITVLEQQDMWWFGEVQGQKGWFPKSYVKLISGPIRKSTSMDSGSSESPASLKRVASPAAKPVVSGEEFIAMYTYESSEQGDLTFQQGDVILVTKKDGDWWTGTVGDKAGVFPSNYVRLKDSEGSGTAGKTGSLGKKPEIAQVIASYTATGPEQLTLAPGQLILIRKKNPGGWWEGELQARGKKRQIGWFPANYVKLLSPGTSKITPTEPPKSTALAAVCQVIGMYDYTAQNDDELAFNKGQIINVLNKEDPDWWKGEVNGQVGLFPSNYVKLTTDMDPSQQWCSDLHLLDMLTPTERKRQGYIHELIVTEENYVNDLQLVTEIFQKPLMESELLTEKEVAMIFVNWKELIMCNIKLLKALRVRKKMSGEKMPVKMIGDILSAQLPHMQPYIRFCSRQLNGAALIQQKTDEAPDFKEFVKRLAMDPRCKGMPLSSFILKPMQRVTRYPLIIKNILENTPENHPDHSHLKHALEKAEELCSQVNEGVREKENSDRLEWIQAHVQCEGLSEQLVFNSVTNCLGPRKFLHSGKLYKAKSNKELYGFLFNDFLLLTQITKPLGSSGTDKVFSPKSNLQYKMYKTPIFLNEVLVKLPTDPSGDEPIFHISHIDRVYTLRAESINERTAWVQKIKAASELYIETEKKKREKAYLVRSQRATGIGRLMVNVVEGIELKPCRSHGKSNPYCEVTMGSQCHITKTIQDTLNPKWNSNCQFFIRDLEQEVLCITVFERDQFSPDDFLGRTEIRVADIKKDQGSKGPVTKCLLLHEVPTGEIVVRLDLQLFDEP
UniProt A8MWY0: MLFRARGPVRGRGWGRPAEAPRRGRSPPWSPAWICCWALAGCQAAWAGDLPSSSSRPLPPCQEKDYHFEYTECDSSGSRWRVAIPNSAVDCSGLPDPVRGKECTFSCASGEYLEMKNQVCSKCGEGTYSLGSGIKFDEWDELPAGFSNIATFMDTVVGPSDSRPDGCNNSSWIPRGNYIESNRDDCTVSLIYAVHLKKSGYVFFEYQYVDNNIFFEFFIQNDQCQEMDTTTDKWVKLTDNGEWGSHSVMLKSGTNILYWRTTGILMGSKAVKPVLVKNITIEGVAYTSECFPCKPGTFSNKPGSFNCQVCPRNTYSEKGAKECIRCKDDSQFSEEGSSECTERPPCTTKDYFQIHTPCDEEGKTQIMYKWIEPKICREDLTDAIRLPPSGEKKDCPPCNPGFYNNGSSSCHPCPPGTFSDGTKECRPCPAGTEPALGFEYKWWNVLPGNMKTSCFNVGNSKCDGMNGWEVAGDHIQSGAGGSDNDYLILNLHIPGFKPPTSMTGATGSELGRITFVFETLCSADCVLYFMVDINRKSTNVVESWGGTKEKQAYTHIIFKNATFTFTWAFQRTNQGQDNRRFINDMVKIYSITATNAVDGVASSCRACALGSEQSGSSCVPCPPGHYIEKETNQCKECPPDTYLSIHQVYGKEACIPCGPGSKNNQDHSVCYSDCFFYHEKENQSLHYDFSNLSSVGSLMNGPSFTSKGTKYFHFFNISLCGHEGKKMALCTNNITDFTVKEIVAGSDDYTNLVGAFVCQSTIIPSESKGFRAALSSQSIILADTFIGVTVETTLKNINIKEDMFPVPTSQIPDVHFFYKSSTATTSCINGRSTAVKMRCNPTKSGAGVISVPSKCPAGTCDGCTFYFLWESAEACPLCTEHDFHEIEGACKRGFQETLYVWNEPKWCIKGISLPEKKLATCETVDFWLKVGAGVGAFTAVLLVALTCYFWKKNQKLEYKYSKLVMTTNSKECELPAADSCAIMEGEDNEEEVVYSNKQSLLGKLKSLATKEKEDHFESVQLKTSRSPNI
UniProt Q99661: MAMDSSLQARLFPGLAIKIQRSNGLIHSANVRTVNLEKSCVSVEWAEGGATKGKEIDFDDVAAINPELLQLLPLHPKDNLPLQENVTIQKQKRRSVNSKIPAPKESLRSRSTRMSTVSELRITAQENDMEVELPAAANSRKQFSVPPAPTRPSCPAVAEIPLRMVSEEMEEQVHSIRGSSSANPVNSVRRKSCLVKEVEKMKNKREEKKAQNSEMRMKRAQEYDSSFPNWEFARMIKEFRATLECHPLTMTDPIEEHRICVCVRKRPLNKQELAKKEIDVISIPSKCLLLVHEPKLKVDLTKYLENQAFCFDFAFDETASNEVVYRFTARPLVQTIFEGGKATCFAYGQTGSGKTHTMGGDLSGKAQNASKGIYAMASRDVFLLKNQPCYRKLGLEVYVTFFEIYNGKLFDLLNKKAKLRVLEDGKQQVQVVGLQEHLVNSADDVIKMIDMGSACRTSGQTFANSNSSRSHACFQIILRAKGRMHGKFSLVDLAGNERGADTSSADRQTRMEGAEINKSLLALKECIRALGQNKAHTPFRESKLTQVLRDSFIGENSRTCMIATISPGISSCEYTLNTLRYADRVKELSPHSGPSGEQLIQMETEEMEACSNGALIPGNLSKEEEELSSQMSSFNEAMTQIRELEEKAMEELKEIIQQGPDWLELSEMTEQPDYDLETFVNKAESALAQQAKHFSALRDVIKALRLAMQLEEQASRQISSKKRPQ
UniProt Q9BXK1: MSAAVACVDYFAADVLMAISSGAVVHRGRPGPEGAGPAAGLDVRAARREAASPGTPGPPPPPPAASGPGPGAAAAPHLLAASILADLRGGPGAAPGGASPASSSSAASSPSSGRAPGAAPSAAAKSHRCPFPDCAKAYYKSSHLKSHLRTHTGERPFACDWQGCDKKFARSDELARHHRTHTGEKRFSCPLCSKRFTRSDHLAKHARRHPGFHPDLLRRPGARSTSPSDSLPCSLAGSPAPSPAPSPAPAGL
UniProt Q6P597: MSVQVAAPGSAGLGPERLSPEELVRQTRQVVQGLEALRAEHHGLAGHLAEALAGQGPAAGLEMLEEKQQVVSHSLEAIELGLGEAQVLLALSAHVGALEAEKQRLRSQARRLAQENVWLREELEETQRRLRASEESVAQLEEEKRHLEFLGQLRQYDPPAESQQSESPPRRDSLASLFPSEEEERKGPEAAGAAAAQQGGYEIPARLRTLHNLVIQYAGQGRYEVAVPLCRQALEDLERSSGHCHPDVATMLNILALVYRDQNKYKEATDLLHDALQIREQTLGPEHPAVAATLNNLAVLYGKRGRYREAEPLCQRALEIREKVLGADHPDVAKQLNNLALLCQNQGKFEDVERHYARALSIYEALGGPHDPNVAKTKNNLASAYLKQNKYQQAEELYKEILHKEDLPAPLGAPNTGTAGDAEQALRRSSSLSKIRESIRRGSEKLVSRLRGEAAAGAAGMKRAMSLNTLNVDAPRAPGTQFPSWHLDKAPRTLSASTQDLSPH
UniProt P52333: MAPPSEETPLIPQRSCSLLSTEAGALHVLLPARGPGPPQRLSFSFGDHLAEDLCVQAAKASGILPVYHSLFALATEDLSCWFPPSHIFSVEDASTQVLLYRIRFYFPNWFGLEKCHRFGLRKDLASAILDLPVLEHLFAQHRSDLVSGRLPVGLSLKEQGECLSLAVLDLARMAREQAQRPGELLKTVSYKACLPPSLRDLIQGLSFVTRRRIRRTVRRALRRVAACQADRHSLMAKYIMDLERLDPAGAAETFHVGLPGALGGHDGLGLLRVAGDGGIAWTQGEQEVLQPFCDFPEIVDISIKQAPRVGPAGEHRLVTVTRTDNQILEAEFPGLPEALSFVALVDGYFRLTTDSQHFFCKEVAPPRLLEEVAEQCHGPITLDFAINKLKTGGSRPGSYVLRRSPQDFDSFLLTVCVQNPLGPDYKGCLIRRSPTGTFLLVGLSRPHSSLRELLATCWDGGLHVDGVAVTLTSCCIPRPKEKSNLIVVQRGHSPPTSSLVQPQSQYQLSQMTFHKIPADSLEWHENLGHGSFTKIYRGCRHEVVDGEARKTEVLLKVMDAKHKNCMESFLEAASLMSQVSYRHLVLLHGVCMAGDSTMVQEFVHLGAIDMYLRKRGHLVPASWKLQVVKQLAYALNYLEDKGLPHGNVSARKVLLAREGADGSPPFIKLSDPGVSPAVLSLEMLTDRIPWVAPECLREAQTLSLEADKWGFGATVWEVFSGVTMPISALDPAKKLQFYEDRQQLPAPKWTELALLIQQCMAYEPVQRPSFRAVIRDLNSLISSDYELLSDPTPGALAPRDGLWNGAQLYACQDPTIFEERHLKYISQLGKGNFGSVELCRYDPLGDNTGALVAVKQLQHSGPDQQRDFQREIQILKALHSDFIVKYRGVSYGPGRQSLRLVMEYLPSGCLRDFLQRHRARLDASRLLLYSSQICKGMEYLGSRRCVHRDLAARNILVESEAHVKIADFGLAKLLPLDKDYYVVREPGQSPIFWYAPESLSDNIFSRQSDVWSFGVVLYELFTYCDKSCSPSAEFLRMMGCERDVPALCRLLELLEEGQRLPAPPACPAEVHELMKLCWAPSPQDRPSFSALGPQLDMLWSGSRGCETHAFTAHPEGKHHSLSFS
UniProt Q9Y664: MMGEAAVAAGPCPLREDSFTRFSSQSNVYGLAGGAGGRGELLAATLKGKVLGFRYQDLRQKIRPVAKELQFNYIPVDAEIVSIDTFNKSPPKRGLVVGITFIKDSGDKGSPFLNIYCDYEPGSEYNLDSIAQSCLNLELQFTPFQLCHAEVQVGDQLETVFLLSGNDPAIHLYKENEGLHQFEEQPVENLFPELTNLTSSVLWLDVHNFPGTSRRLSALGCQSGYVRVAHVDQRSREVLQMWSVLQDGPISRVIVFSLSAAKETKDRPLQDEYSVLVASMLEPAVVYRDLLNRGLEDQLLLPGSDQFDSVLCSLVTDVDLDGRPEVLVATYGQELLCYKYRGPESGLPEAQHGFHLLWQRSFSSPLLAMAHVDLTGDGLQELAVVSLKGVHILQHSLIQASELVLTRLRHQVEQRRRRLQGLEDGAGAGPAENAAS
UniProt Q969F8, whole entry, looked up: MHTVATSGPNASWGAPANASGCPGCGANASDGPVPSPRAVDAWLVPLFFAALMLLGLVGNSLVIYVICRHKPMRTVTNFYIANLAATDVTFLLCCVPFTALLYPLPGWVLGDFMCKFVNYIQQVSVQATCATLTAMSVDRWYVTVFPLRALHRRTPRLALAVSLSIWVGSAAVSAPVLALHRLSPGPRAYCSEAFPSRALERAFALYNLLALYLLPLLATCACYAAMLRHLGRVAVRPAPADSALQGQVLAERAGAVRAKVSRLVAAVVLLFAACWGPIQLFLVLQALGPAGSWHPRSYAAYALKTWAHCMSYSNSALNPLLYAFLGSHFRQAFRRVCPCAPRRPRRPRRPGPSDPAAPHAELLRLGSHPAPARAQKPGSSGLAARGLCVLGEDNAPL

[2] = compound: NC(=O)c1cnc(N[C@@H]2CCCC[C@@H]2N)nc1Nc1cccc(-n2nccn2)c1
How it was run: as §1

[3] = compound: NC1(c2ccc(-c3nc4ccn5c(=O)[nH]nc5c4cc3-c3ccccc3)cc2)CCC1
How it was run: as §1

[4] = compound: NCC(=O)Nc1ccc(-n2nc(C(F)(F)F)cc2-c2ccc3c(ccc4ccccc43)c2)cc1
How it was run: as §1

entinostat = compound: Nc1ccccc1NC(=O)c1ccc(CNC(=O)OCc2cccnc2)cc1 [entinostat]
How it was run: as §1

silmitasertib = compound: O=C(O)c1ccc2c(c1)nc(Nc1cccc(Cl)c1)c1ccncc12 [silmitasertib]
How it was run: as §1

citarinostat = compound: O=C(CCCCCCNC(=O)c1cnc(N(c2ccccc2)c2ccccc2Cl)nc1)NO [citarinostat]
How it was run: as §1

[5] = compound: O=C1NC(=O)C(c2cnc3ccccn23)=C1c1cn2c3c(cc(F)cc13)CN(C(=O)N1CCCCC1)CC2
How it was run: as §1

[6] = compound: c1cc(OCCN2CCCCC2)cc(-c2n[nH]c3ccc(-c4nnc[nH]4)cc23)c1
How it was run: as §1

vorinostat = compound: O=C(CCCCCCC(=O)Nc1ccccc1)NO [vorinostat]
How it was run: as §1

Measured: log2 fold change

JMJD8 (UniProt Q96S16)
inactive: [1] 0.134 | [2] 0.074 | [3] -0.022 | [4] -0.105 | entinostat 0.049 | silmitasertib 0.073

JTB (UniProt O76095)
inactive: [1] -0.06 | [2] 0.105 | [3] -0.122 | [4] -0.028 | entinostat 0.032 | citarinostat -0.1 | silmitasertib 0.098 | [5] -0.014 | [6] 0.077

ITSN1 (UniProt Q15811)
inactive: [1] 0.023 | [2] -0.024 | [3] 0.23 | entinostat 0.271 | vorinostat 0.224 | silmitasertib 0.158 | [5] 0.097

KIAA1324L (UniProt A8MWY0)
inactive: [1] -0.016 | [2] -0.015 | [3] -0.138 | [4] 0.009 | entinostat -0.067 | vorinostat 0.003 | citarinostat 0.004 | silmitasertib -0.014 | [5] -0.013 | [6] -0.094

Two records picked at random from those above:
JMJD8 (UniProt Q96S16)
inactive: [1] 0.134 | [2] 0.074 | [3] -0.022 | [4] -0.105 | entinostat 0.049 | silmitasertib 0.073

KIAA1324L (UniProt A8MWY0)
inactive: [1] -0.016 | [2] -0.015 | [3] -0.138 | [4] 0.009 | entinostat -0.067 | vorinostat 0.003 | citarinostat 0.004 | silmitasertib -0.014 | [5] -0.013 | [6] -0.094

(next part)

KSR1 (UniProt Q8IVT5)
inactive: [1] -0.333 | [2] -0.049 | [3] 0.236 | [4] -0.111 | entinostat 0.044 | vorinostat 0.013 | citarinostat 0.045 | silmitasertib -0.279 | [5] -0.118 | [6] -0.193

KMT2D isoform 3 (UniProt O14686)
inactive: [1] -0.004 | [2] 0.015 | [3] 0.028 | [4] -0.001 | entinostat -0.03 | vorinostat -0.089 | citarinostat -0.193 | silmitasertib 0.121 | [5] 0.105 | [6] -0.237

KIF2C (UniProt Q99661)
inactive: [1] -0.024 | [2] 0 | [3] -0.053 | [4] -0.068 | entinostat 0.095 | vorinostat 0.122 | citarinostat 0.156 | silmitasertib -0.009 | [5] -0.005 | [6] -0.001

KLF16 (UniProt Q9BXK1)
inactive: [1] 0.051 | [2] -0.054 | [3] 0.026 | [4] 0.193 | entinostat -0.047 | vorinostat -0.077 | citarinostat -0.015 | silmitasertib 0.008 | [6] -0.038

KIF1C (UniProt O43896)
inactive: [1] -0.091 | entinostat 0.169

KCTD21 (UniProt Q4G0X4)
inactive: [1] -0.013 | [2] -0.039 | entinostat -0.039

KIAA0930 isoform 2 (UniProt Q6ICG6)
inactive: [1] -0.148 | [3] -0.076 | [4] -0.037 | entinostat -0.076 | citarinostat -0.214 | silmitasertib 0.026 | [5] 0.135 | [6] -0.059

KMT5A (UniProt Q9NQR1)
inactive: [1] 0.069 | entinostat -0.258 | vorinostat 0.096

KLC3 isoform 3 (UniProt Q6P597)
inactive: [1] -0.44 | entinostat 0.094

KCNK1 (UniProt O00180)
inactive: [1] 0.072 | entinostat -0.071 | vorinostat -0.143 | citarinostat -0.077 | [5] -0.006 | [6] 0.504

KDM1B (UniProt Q8NB78)
inactive: [1] -0.032 | [3] -0.049 | entinostat -0.183 | citarinostat -0.044 | silmitasertib 0.067 | [6] 0.383

KIAA1109 (UniProt Q2LD37)
inactive: [1] 0.012 | entinostat -0.171 | vorinostat -0.32 | citarinostat 0 | [6] 0.196

KRIT1 (UniProt O00522)
inactive: [1] -0.169 | [4] 0.092 | entinostat -0.261 | vorinostat 0.018 | [5] 0.204

KMT2A isoform 3 (UniProt Q03164)
inactive: [1] -0.24 | entinostat -0.077 | vorinostat 0.058

KNOP1 (UniProt Q1ED39)
inactive: [2] 0.085 | [3] 0.201 | [4] -0.028 | vorinostat -0.021 | citarinostat 0.043 | silmitasertib -0.122 | [6] 0.077

JAK3 (UniProt P52333)
inactive: [1] 0 | [3] -0.045 | [4] -0.102 | entinostat -0.019 | vorinostat -0.048 | silmitasertib -0.003 | [5] 0.002

KBTBD7 (UniProt Q8WVZ9)
inactive: [1] 0.154 | entinostat -0.076 | vorinostat -0.027

JMJD4 (UniProt Q9H9V9)
inactive: [1] -0.119 | [2] -0.03 | entinostat -0.142

KIF13A isoform 4 (UniProt Q9H1H9)
inactive: [1] -0.034 | [2] -0.165 | entinostat 0.303

KIFC3 isoform 6 (UniProt Q9BVG8)
inactive: [1] -0.499 | [3] -0.212 | [4] 0.039 | entinostat -0.285 | vorinostat -0.144 | citarinostat -0.216 | silmitasertib 0.103 | [5] -0.138 | [6] -0.262

KLF1 (UniProt Q13351)
inactive: [1] -0.012 | [3] 0.18 | [4] 0.116 | entinostat -0.301 | vorinostat -0.069 | citarinostat -0.092 | silmitasertib -0.016 | [6] -0.189

KPTN (UniProt Q9Y664)
inactive: [2] -0.083 | [3] -0.188 | [4] -0.015 | vorinostat 0.006 | citarinostat 0.051 | silmitasertib 0.106 | [5] 0.064 | [6] -0.009

KISS1R (UniProt Q969F8)
inactive: [1] -0.074 | [3] 0.041 | entinostat -0.142 | vorinostat 0.097 | silmitasertib -0.022 | [5] -0.016

KIF26A (UniProt Q9ULI4)
inactive: [1] -0.042 | [3] -0.103 | entinostat -0.021 | citarinostat 0.061 | silmitasertib -0.001 | [6] -0.154

KSR2 (UniProt Q6VAB6)
inactive: [1] -0.107 | entinostat 0.136 | vorinostat 0.077 | [5] 0.094

KDELR1 (UniProt P24390)
inactive: [1] 0.187 | [3] 0 | entinostat -0.127 | citarinostat 0.05 | silmitasertib 0.005 | [5] 0.27 | [6] -0.065

KATNBL1 (UniProt Q9H079)
inactive: [1] 0.056 | [3] 0.006 | [4] -0.167 | entinostat 0.107 | vorinostat 0.02 | citarinostat -0.057 | silmitasertib -0.04 | [6] -0.247
